Measurements published in PMC12752627, “Discovery of a Potent and Selective TEAD Degrader with Durable Degradation Activity” (Advanced Science, 2025).
This continues a long series; more values of the same kind are listed elsewhere.

Test system: 867 cancer cell lines
Experiment: PRISM assay (barcoded cell line screening, 5 days);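 note: top test concentration 10 mM in eight-point dilution series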
Assay type: cell-based
Set-up: scale not given here
Description: The principle of the PRISM assay has been described elsewhere and was conducted as previously outlined by the PRISM team at the Broad Institute.^[ [14], [31] ^] In PRISM (MTS027) experiments, KG‐FP‐003 was tested across 867 different cancer cell lines. Cells were treated with eight concentration gradients, ranging from 4.6 nM to […], in triplicate dilutions over a period of five days. Each plate was treated with 20 µM bortezomib as a positive control and DMSO as a negative control. Three replicate experiments were performed for each compound. The resulting data were analyzed using GraphPad PRISM 9.5.

**Q.** Which results are given for CNC(=O)c1cc2c(c(F)c1-c1c(Cl)c(F)cc3c1C[C@@](CN[C@H]1CC[C@H](C(=O)N4CCC(CC5CCN(C(=O)COc6ccc(N7CCC(=O)NC7=O)c(C)c6)CC5)CC4)CC1)(c1ccccc1)O3)[C@@H](O)[C@@H](C)C2 [KG-FP-003]?
**A.** KG-FP-003-AUC (8MGBA_CENTRAL_NERVOUS_SYSTEM ACH-000137 PR500): 0.88; KG-FP-003-AUC (22RV1_PROSTATE ACH-000956 PR500): 0.99; KG-FP-003-AUC (93T449_SOFT_TISSUE ACH-001794 PR300): 1.00; KG-FP-003-AUC (94T778_SOFT_TISSUE ACH-001795 PR300): 0.55; KG-FP-003-AUC (95T1000_SOFT_TISSUE ACH-001796 PR300): 0.46; KG-FP-003-AUC (143B_BONE ACH-001001 PR300): 0.99; KG-FP-003-AUC (253JBV_URINARY_TRACT ACH-000026 PR500): 0.99; KG-FP-003-AUC (253J_URINARY_TRACT ACH-000011 PR500): 0.88; KG-FP-003-AUC (921_UVEA ACH-001441 PR300): 0.87; KG-FP-003-AUC (1618K_TESTIS ACH-001437 PR300): 0.89; KG-FP-003-AUC (1777NRPMET_TESTIS ACH-001438 PR300): 0.95; KG-FP-003-AUC (9505BIK_PANCREAS ACH-001999 PR300): 0.85; KG-FP-003-AUC (2313287_STOMACH ACH-000948 PR500): 0.99; KG-FP-003-AUC (A3KAW_HAEMATOPOIETIC_AND_LYMPHOID_TISSUE ACH-000697 PR300): 1.00; KG-FP-003-AUC (A101D_SKIN ACH-000008 PR500): 0.99; KG-FP-003-AUC (A172_CENTRAL_NERVOUS_SYSTEM ACH-000558 PR500): 0.43; KG-FP-003-AUC (A253_SALIVARY_GLAND ACH-000740 PR300): 0.61; KG-FP-003-AUC (A375_SKIN ACH-000219 PR500): 0.93; KG-FP-003-AUC (A388_SKIN ACH-001442 PR300): 1.00; KG-FP-003-AUC (A427_LUNG ACH-000757 PR300): 0.71; KG-FP-003-AUC (A498_KIDNEY ACH-000555 PR300): 1.00; KG-FP-003-AUC (A549_LUNG ACH-000681 PR500): 0.70; KG-FP-003-AUC (A673_BONE ACH-000052 PR300): 0.99; KG-FP-003-AUC (A704_KIDNEY ACH-000429 PR500): 0.99; KG-FP-003-AUC (A1207_CENTRAL_NERVOUS_SYSTEM ACH-000283 PR300): 0.43; KG-FP-003-AUC (A2058_SKIN ACH-000788 PR500): 0.93; KG-FP-003-AUC (A2780_OVARY ACH-000657 PR500): 0.76; KG-FP-003-AUC (ABC1_LUNG ACH-000528 PR500): 0.81; KG-FP-003-AUC (ACCMESO1_PLEURA ACH-000086 PR500): 0.82; KG-FP-003-AUC (ACHN_KIDNEY ACH-000046 PR500): 0.78; KG-FP-003-AUC (AGS_STOMACH ACH-000880 PR500): 0.56; KG-FP-003-AUC (ALLSIL_HAEMATOPOIETIC_AND_LYMPHOID_TISSUE ACH-000105 PR300): 0.90; KG-FP-003-AUC (AM38_CENTRAL_NERVOUS_SYSTEM ACH-000269 PR300): 0.59; KG-FP-003-AUC (AMO1_HAEMATOPOIETIC_AND_LYMPHOID_TISSUE ACH-000838 PR300): 0.88; KG-FP-003-AUC (AN3CA_ENDOMETRIUM ACH-000940 PR500): 0.99; KG-FP-003-AUC (ANGMCSS_CENTRAL_NERVOUS_SYSTEM ACH-001329 PR300): 0.98; KG-FP-003-AUC (ASPC1_PANCREAS ACH-000222 PR500): 0.76; KG-FP-003-AUC (AU565_BREAST ACH-000248 PR300): 0.95; KG-FP-003-AUC (BC3C_URINARY_TRACT ACH-000593 PR500): 1.00; KG-FP-003-AUC (BCPAP_THYROID ACH-000456 PR500): 0.77; KG-FP-003-AUC (BECKER_CENTRAL_NERVOUS_SYSTEM ACH-001016 PR500): 0.94; KG-FP-003-AUC (BFTC905_URINARY_TRACT ACH-000802 PR500): 0.48; KG-FP-003-AUC (BFTC909_KIDNEY ACH-000792 PR500): 0.91; KG-FP-003-AUC (BHT101_THYROID ACH-000191 PR500): 0.76; KG-FP-003-AUC (BHY_UPPER_AERODIGESTIVE_TRACT ACH-000548 PR300): 0.70; KG-FP-003-AUC (BICR6_UPPER_AERODIGESTIVE_TRACT ACH-000415 PR500): 0.81; KG-FP-003-AUC (BICR16_UPPER_AERODIGESTIVE_TRACT ACH-000503 PR500): 0.74; KG-FP-003-AUC (BICR18_UPPER_AERODIGESTIVE_TRACT ACH-000992 PR300): 0.73; KG-FP-003-AUC (BICR22_UPPER_AERODIGESTIVE_TRACT ACH-000794 PR300): 0.93; KG-FP-003-AUC (BICR31_UPPER_AERODIGESTIVE_TRACT ACH-000228 PR500): 0.88; KG-FP-003-AUC (BICR56_UPPER_AERODIGESTIVE_TRACT ACH-000771 PR500): 0.78; KG-FP-003-AUC (BICR78_UPPER_AERODIGESTIVE_TRACT ACH-001332 PR300): 0.60; KG-FP-003-AUC (BL2_HAEMATOPOIETIC_AND_LYMPHOID_TISSUE ACH-001449 PR300): 0.71; KG-FP-003-AUC (BLUE1_HAEMATOPOIETIC_AND_LYMPHOID_TISSUE ACH-001450 PR300): 0.89; KG-FP-003-AUC (BOKU_CERVIX ACH-001451 PR300): 0.95; KG-FP-003-AUC (BT12_SOFT_TISSUE ACH-000160 PR300): 0.69; KG-FP-003-AUC (BT16_SOFT_TISSUE ACH-001020 PR300): 0.99; KG-FP-003-AUC (BT474_BREAST ACH-000927 PR500): 1.00; KG-FP-003-AUC (BT549_BREAST ACH-000288 PR500): 0.64; KG-FP-003-AUC (BV173_HAEMATOPOIETIC_AND_LYMPHOID_TISSUE ACH-000432 PR300): 0.80; KG-FP-003-AUC (C4I_CERVIX ACH-001334 PR300): 0.97; KG-FP-003-AUC (C32_SKIN ACH-000580 PR300): 0.73; KG-FP-003-AUC (C33A_CERVIX ACH-001333 PR300): 0.94; KG-FP-003-AUC (C75_LARGE_INTESTINE ACH-001458 PR300): 1.00; KG-FP-003-AUC (C80_LARGE_INTESTINE ACH-001459 PR300): 1.00; KG-FP-003-AUC (C8166_HAEMATOPOIETIC_AND_LYMPHOID_TISSUE ACH-000206 PR300): 0.84; KG-FP-003-AUC (CADOES1_BONE ACH-000210 PR300): 1.00; KG-FP-003-AUC (CADOES1_BONE ACH-000210 PR500): 1.00; KG-FP-003-AUC (CAKI1_KIDNEY ACH-000433 PR500): 0.54; KG-FP-003-AUC (CAL12T_LUNG ACH-000826 PR500): 0.55; KG-FP-003-AUC (CAL27_UPPER_AERODIGESTIVE_TRACT ACH-000832 PR500): 0.89; KG-FP-003-AUC (CAL29_URINARY_TRACT ACH-000142 PR500): 0.76; KG-FP-003-AUC (CAL33_UPPER_AERODIGESTIVE_TRACT ACH-000518 PR300): 0.88; KG-FP-003-AUC (CAL51_BREAST ACH-000856 PR500): 0.53; KG-FP-003-AUC (CAL54_KIDNEY ACH-000457 PR500): 0.91; KG-FP-003-AUC (CAL62_THYROID ACH-000174 PR500): 0.51; KG-FP-003-AUC (CAL72_BONE ACH-001715 PR300): 1.00; KG-FP-003-AUC (CAL120_BREAST ACH-000212 PR500): 0.63; KG-FP-003-AUC (CAL148_BREAST ACH-000902 PR300): 0.88; KG-FP-003-AUC (CALU1_LUNG ACH-000511 PR500): 0.47; KG-FP-003-AUC (CALU6_LUNG ACH-000264 PR500): 0.99; KG-FP-003-AUC (CAMA1_BREAST ACH-000783 PR500): 0.99; KG-FP-003-AUC (CAOV3_OVARY ACH-000713 PR500): 0.53; KG-FP-003-AUC (CAPAN2_PANCREAS ACH-000107 PR500): 0.65; KG-FP-003-AUC (CAS1_CENTRAL_NERVOUS_SYSTEM ACH-000464 PR300): 0.85; KG-FP-003-AUC (CASKI_CERVIX ACH-001336 PR300): 0.79; KG-FP-003-AUC (GIMEN_AUTONOMIC_GANGLIA ACH-001344 PR300): 0.77; KG-FP-003-AUC (GOS3_CENTRAL_NERVOUS_SYSTEM ACH-000027 PR500): 0.65; KG-FP-003-AUC (GP2D_LARGE_INTESTINE ACH-000982 PR500): 0.98; KG-FP-003-AUC (GP5D_LARGE_INTESTINE ACH-001345 PR300): 1.00; KG-FP-003-AUC (GRANTA519_HAEMATOPOIETIC_AND_LYMPHOID_TISSUE ACH-000073 PR300): 0.81; KG-FP-003-AUC (GSS_STOMACH ACH-000746 PR300): 0.88; KG-FP-003-AUC (GSU_STOMACH ACH-000485 PR300): 0.90; KG-FP-003-AUC (H4_CENTRAL_NERVOUS_SYSTEM ACH-000389 PR500): 1.00; KG-FP-003-AUC (H103_UPPER_AERODIGESTIVE_TRACT ACH-001346 PR300): 0.98
